Measurements reported in PubChem BioAssay AID1259254 (NCATS, 2017)
Here is an unselected part of about 59,000 reagents. About 1,550 of all reagents (2.6%) count as active. 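G2 share is only a proxy for re-replication; each gene was hit by three separate siRNAs, and active genes were retested.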 Raw values are not corrected between plates. Unmarked entries are inactive. The numbers tell different reagents against one gene apart. The record does not give: the amount of reagent.

- Aim: 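Gene knock-downs that lead to re-replication, shown by excess G2 DNA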 (primary screen)
- Cells: human HCT116 colorectal cancer cells
- Reagent: single siRNA against human genes
- Timing: 3 days
- Measurement: 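Nuclei stained with Hoechst and imaged; cell-cycle phase assigned by DNA content; G2 share scaled per plate, non-targeting siRNA 0%, GMNN siRNA 100%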
- Direction: G2 robust z-score and G2 cells, % of GMNN control: higher = more G2 cells, more excess DNA replication; raw share of cells in G2: higher = larger share of cells with G2 DNA content
- Hit rule: 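Active siRNAs have a G2 robust z of 5 or more median absolute deviations over the median, which in these data means about 38% or higher of GMNN control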

gene symbol,reagent no.,G2 robust z-score,"G2 cells, % of GMNN control",raw share of cells in G2 (%)
PLPPR3,1,-0.128,2.07,5.21
PLPPR3,2,5.34 (active),40.5,13.5
PLPPR3,3,-0.354,0.478,4.64
H3C15,1,2.38,19.7,10.8
H3C15,2,-0.341,0.572,3.51
H3C15,3,0.611,7.26,7.11
SYT7,1,0.46,6.2,5.59
SYT7,2,1.56,14,12.2
SYT7,3,0.142,3.96,5
NLRP11,1,-0.671,-1.76,4.06
NLRP11,2,0,2.97,5.95
NLRP11,3,0.886,9.2,10.3
ADIPOR1,1,0.296,5.05,6.11
ADIPOR1,2,-0.852,-3.03,2.64
ADIPOR1,3,-0.512,-0.638,5.66
NAPA,1,-0.0522,2.6,4.39
NAPA,2,0.283,4.96,8.2
NAPA,3,-0.164,1.81,4.1
LOC645188,1,0.00342,2.99,4.78
LOC645188,2,3.09,24.7,12.1
LOC645188,3,1.26,11.8,6.6
LRTM1,1,-1.08,-4.6,3.74
LRTM1,2,6.25 (active),46.9,20.9
LRTM1,3,2.47,20.3,11.6
KIF5A,1,-0.51,-0.619,4.82
KIF5A,2,0.128,3.87,5.62
KIF5A,3,0.632,7.41,8.51
COL6A5,1,0.865,9.05,6.86
COL6A5,2,1.44,13.1,7.63
COL6A5,3,4.9,37.5,15.1
GJA8,1,-0.566,-1.01,3.06
GJA8,2,0.14,3.95,6.7
GJA8,3,-0.102,2.25,3.92
OCRL,1,0.308,5.13,6.46
OCRL,2,-0.503,-0.571,4.13
OCRL,3,1.44,13.1,7.44
CLEC16A,1,-0.76,-2.38,3.52
CLEC16A,2,0.185,4.27,5.79
CLEC16A,3,0.317,5.19,5.11
LINC02873,1,-0.424,-0.0125,3.64
LINC02873,2,-0.153,1.89,3.77
LINC02873,3,1.1,10.7,6.52
ATP2C2,1,-2.04,-11.4,1.15
ATP2C2,2,-0.285,0.96,5.11
ATP2C2,3,-0.228,1.37,4.91
CCNJL,1,2.63,21.5,10.7
CCNJL,2,-0.247,1.23,3.5
CCNJL,3,0.939,9.57,7.9
ZC3H18,1,0.511,6.56,6.72
ZC3H18,2,-0.998,-4.05,2.12
ZC3H18,3,1.91,16.4,6.61
HBM,1,-0.0387,2.69,6.71
HBM,2,-0.949,-3.71,2.84
HBM,3,2.35,19.5,12.1
AGR3,1,0.572,6.99,6.11
AGR3,2,0.473,6.29,5.07
AGR3,3,-0.434,-0.0855,2.74
SLC7A4,1,-0.0563,2.57,4.81
SLC7A4,2,1.02,10.1,8.02
SLC7A4,3,-1.28,-6.01,3.66
ANP32CP,1,-0.0406,2.68,4.3
ANP32CP,2,5.1 (active),38.8,17.4
ANP32CP,3,0.152,4.03,5.52
HELT,1,2.99,24,16.3
HELT,2,3.86,30.1,16.7
HELT,3,-1.19,-5.38,2.32
RAB3IL1,1,0.913,9.39,8.97
RAB3IL1,2,-0.563,-0.993,3.83
RAB3IL1,3,-1.19,-5.39,1.41

10 consecutive entries already listed, quoted:
gene symbol,reagent no.,G2 robust z-score,"G2 cells, % of GMNN control",raw share of cells in G2 (%)
H3C15,2,-0.341,0.572,3.51
H3C15,3,0.611,7.26,7.11
SYT7,1,0.46,6.2,5.59
SYT7,2,1.56,14,12.2
SYT7,3,0.142,3.96,5
NLRP11,1,-0.671,-1.76,4.06
NLRP11,2,0,2.97,5.95
NLRP11,3,0.886,9.2,10.3
ADIPOR1,1,0.296,5.05,6.11
ADIPOR1,2,-0.852,-3.03,2.64
